{"source": "PubChem BioAssay AID1224826 (NIAID, 2016)", "assay": "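Regulators of Tlr4 signalling leading to Tnf-alpha expression in macrophages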 (primary screen)", "cell system": "RAW264.7 G9 macrophages from mouse bearing reporters for p65 (GFP) and the Tnf promoter (mCherry)", "knock-down reagent": "siRNA pool against mouse genes, 100 nM", "duration": "16 h of LPS stimulation, after 2 days of siRNA transfection", "treatment": "bacterial lipopolysaccharide (Salmonella minnesota R595), 10 ng/ml", "detection": "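Imaged Tnf reporter mCherry in nuclei, minus background, normalised per plate to the median and expressed as robust z-scores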", "scale": "Tnf reporter robust z-score: higher = stronger Tnf promoter reporter signal after LPS", "rule for the call": "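Called active when robust z-score is at most -1.3, matching the median of the Tlr4 knock-down control, or over 3; control wells and wells with under 50 cells never active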", "meaning of the calls": "active = Tnf reporter clearly lowered or raised; inactive = no clear change in Tnf reporter", "note": "The deposit covers about 17,000 reagents; below is a part drawn at random. Over the whole deposit, about 1,110 (6.6%) are marked active. 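Active means lowered or raised reporter signal; replicate intensities are raw and not normalised per plate.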 Further read-outs or replicates are left out here."}
{"Gene": "E2f1 (GeneID 13555)", "Tnf reporter robust z-score": -0.33, "fewer than 50 cells in well": "enough cells in well", "call": "inactive"}
{"Gene": "Chtf18 (GeneID 214901)", "Tnf reporter robust z-score": 1.13, "fewer than 50 cells in well": "enough cells in well", "call": "inactive"}
{"Gene": "Cdc27 (GeneID 217232)", "Tnf reporter robust z-score": -0.25, "fewer than 50 cells in well": "enough cells in well", "call": "inactive"}
{"Gene": "Col6a1 (GeneID 12833)", "Tnf reporter robust z-score": -0.19, "fewer than 50 cells in well": "enough cells in well", "call": "inactive"}
{"Gene": "Dlx4 (GeneID 13394)", "Tnf reporter robust z-score": 0.48, "fewer than 50 cells in well": "enough cells in well", "call": "inactive"}
{"Gene": "Lamtor2 (GeneID 83409)", "Tnf reporter robust z-score": 0.79, "fewer than 50 cells in well": "enough cells in well", "call": "inactive"}

Targets listed so far whose gene name begins with C or c:
{"Gene": "Chtf18 (GeneID 214901)", "Tnf reporter robust z-score": 1.13, "fewer than 50 cells in well": "enough cells in well", "call": "inactive"}
{"Gene": "Cdc27 (GeneID 217232)", "Tnf reporter robust z-score": -0.25, "fewer than 50 cells in well": "enough cells in well", "call": "inactive"}
{"Gene": "Col6a1 (GeneID 12833)", "Tnf reporter robust z-score": -0.19, "fewer than 50 cells in well": "enough cells in well", "call": "inactive"}

Further results:
{"Gene": "Ccdc91 (GeneID 67015)", "Tnf reporter robust z-score": 0.47, "fewer than 50 cells in well": "enough cells in well", "call": "inactive"}
{"Gene": "Sod1 (GeneID 20655)", "Tnf reporter robust z-score": 0.4, "fewer than 50 cells in well": "enough cells in well", "call": "inactive"}
{"Gene": "Crat (GeneID 12908)", "Tnf reporter robust z-score": 1.01, "fewer than 50 cells in well": "enough cells in well", "call": "inactive"}
{"Gene": "Apobec1 (GeneID 11810)", "Tnf reporter robust z-score": -0.39, "fewer than 50 cells in well": "enough cells in well", "call": "inactive"}
{"Gene": "Atp5f1a (GeneID 11946)", "Tnf reporter robust z-score": -0.41, "fewer than 50 cells in well": "enough cells in well", "call": "inactive"}
{"Gene": "Pink1 (GeneID 68943)", "Tnf reporter robust z-score": 0.59, "fewer than 50 cells in well": "enough cells in well", "call": "inactive"}
{"Gene": "Map3k7cl (GeneID 224419)", "Tnf reporter robust z-score": 1.7, "fewer than 50 cells in well": "enough cells in well", "call": "inactive"}
{"Gene": "Ak2 (GeneID 11637)", "Tnf reporter robust z-score": 0.82, "fewer than 50 cells in well": "enough cells in well", "call": "inactive"}
